# According to publication PMC4311446:
# Chains of the proteins cited; added tags and fusions are not shown.
# UniProt O15379: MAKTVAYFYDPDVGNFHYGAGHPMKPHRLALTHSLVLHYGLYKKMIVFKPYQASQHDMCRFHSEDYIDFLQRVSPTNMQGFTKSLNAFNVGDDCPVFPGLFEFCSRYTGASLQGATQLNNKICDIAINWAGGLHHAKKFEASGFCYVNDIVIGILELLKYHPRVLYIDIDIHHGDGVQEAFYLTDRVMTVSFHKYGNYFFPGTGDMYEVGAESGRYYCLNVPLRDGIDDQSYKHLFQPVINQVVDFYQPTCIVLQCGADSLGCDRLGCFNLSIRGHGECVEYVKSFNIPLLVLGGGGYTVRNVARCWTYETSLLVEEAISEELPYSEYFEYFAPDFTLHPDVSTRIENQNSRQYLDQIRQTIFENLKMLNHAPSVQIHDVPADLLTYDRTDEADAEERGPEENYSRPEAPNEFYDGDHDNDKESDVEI
# UniProt Q13526: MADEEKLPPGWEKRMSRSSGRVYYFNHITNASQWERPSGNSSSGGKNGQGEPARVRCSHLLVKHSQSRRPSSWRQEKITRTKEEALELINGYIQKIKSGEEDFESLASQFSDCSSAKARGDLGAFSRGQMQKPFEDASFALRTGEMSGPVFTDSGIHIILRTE
# Results are given in words; binding and its absence hold for the method and conditions named. Binding seen in cells or lysates may run through a third protein. Some binding calls cover weakened binding; strength is not graded here.
# Biological target: Histone deacetylase 3 (HDAC3) (human (endogenous in PLC/PRF/5)) (UniProt O15379)
# Test: co-IP; endogenous proteins in cell lysates; lysates precleared with protein A/G Plus-agarose; primary antibody coupled to Dynabeads Protein G, incubated with lysate overnight at 4°C; washed three times with PBS; Western blot
substance,measurement,value
Peptidyl-prolyl cis/trans isomerase 1 (Pin1) (from UniProt Q13526 1-163),binding,binds
